Data: CN107383198A
These are yes or no findings as the source states them, for the method shown. Some results given as binding are weak or reduced against the parent protein; the word gives no strength.

Key:
[1] = molecular target: T1, CysC重组蛋白 (recombinant CysC protein) (human) (UniProt P01034); assay: colloidal gold sandwich lateral-flow card, C12 gold-labelled, recombinant CysC dilution series
T1 sequence (looked up): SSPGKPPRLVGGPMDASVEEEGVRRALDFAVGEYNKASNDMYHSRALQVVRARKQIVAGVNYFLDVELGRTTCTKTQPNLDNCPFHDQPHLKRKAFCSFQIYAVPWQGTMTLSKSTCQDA

CysC标准品(众红自制) (human) = molecular target: T2, CysC标准品(众红自制) (human) (UniProt P01034); assay: colloidal gold sandwich lateral-flow card, C12 as gold-labelled antibody, CysC standard at 7, 1 and 0 mg/L
T2 sequence (looked up): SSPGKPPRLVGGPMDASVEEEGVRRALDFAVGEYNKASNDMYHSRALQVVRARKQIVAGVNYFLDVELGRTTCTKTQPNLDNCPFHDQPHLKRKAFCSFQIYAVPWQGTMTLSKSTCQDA

binding [1]: binds
binding (CysC标准品(众红自制) (human)): binds
B1: 单链抗体C12 (anti-human cystatin C scFv C12) (scFv)
scFv: QVQLQQPGSELVRPGTSVKLSCRASGYTFTSYWMHWVKQRHGQGLEWLGNVDPGSGTTNYEENFKTKGTLTVDTSSSTVYMHLSSLTSEDSAVYYCTAGFDYWGQGTTLTVSAGGGGSGGGGSGGGGSDIQMNQSPSSLSASLGDTITITCHASQNINVWLGWFQQKPENIPKLLIYKASTLHTGVPSRFSGSGSGTVFTLTISSPQPEDIATYYCQQGQTYPLTFGAGTKLEIK
